Results are given in words; binding and its absence hold for the method and conditions named. Some binding calls cover weakened binding; strength is not graded here.
Target: Full-length human low-density lipoprotein receptor-related protein 1 (LRP1) (human) (UniProt Q07954)
Test: SPR; LRP1-coated surface; coinjection experiment, tau with excess RAP; both purified

Amino acid sequences for entries named in this document (tags omitted). Residues count along the entry.
UniProt Q07954, residues 20-4544: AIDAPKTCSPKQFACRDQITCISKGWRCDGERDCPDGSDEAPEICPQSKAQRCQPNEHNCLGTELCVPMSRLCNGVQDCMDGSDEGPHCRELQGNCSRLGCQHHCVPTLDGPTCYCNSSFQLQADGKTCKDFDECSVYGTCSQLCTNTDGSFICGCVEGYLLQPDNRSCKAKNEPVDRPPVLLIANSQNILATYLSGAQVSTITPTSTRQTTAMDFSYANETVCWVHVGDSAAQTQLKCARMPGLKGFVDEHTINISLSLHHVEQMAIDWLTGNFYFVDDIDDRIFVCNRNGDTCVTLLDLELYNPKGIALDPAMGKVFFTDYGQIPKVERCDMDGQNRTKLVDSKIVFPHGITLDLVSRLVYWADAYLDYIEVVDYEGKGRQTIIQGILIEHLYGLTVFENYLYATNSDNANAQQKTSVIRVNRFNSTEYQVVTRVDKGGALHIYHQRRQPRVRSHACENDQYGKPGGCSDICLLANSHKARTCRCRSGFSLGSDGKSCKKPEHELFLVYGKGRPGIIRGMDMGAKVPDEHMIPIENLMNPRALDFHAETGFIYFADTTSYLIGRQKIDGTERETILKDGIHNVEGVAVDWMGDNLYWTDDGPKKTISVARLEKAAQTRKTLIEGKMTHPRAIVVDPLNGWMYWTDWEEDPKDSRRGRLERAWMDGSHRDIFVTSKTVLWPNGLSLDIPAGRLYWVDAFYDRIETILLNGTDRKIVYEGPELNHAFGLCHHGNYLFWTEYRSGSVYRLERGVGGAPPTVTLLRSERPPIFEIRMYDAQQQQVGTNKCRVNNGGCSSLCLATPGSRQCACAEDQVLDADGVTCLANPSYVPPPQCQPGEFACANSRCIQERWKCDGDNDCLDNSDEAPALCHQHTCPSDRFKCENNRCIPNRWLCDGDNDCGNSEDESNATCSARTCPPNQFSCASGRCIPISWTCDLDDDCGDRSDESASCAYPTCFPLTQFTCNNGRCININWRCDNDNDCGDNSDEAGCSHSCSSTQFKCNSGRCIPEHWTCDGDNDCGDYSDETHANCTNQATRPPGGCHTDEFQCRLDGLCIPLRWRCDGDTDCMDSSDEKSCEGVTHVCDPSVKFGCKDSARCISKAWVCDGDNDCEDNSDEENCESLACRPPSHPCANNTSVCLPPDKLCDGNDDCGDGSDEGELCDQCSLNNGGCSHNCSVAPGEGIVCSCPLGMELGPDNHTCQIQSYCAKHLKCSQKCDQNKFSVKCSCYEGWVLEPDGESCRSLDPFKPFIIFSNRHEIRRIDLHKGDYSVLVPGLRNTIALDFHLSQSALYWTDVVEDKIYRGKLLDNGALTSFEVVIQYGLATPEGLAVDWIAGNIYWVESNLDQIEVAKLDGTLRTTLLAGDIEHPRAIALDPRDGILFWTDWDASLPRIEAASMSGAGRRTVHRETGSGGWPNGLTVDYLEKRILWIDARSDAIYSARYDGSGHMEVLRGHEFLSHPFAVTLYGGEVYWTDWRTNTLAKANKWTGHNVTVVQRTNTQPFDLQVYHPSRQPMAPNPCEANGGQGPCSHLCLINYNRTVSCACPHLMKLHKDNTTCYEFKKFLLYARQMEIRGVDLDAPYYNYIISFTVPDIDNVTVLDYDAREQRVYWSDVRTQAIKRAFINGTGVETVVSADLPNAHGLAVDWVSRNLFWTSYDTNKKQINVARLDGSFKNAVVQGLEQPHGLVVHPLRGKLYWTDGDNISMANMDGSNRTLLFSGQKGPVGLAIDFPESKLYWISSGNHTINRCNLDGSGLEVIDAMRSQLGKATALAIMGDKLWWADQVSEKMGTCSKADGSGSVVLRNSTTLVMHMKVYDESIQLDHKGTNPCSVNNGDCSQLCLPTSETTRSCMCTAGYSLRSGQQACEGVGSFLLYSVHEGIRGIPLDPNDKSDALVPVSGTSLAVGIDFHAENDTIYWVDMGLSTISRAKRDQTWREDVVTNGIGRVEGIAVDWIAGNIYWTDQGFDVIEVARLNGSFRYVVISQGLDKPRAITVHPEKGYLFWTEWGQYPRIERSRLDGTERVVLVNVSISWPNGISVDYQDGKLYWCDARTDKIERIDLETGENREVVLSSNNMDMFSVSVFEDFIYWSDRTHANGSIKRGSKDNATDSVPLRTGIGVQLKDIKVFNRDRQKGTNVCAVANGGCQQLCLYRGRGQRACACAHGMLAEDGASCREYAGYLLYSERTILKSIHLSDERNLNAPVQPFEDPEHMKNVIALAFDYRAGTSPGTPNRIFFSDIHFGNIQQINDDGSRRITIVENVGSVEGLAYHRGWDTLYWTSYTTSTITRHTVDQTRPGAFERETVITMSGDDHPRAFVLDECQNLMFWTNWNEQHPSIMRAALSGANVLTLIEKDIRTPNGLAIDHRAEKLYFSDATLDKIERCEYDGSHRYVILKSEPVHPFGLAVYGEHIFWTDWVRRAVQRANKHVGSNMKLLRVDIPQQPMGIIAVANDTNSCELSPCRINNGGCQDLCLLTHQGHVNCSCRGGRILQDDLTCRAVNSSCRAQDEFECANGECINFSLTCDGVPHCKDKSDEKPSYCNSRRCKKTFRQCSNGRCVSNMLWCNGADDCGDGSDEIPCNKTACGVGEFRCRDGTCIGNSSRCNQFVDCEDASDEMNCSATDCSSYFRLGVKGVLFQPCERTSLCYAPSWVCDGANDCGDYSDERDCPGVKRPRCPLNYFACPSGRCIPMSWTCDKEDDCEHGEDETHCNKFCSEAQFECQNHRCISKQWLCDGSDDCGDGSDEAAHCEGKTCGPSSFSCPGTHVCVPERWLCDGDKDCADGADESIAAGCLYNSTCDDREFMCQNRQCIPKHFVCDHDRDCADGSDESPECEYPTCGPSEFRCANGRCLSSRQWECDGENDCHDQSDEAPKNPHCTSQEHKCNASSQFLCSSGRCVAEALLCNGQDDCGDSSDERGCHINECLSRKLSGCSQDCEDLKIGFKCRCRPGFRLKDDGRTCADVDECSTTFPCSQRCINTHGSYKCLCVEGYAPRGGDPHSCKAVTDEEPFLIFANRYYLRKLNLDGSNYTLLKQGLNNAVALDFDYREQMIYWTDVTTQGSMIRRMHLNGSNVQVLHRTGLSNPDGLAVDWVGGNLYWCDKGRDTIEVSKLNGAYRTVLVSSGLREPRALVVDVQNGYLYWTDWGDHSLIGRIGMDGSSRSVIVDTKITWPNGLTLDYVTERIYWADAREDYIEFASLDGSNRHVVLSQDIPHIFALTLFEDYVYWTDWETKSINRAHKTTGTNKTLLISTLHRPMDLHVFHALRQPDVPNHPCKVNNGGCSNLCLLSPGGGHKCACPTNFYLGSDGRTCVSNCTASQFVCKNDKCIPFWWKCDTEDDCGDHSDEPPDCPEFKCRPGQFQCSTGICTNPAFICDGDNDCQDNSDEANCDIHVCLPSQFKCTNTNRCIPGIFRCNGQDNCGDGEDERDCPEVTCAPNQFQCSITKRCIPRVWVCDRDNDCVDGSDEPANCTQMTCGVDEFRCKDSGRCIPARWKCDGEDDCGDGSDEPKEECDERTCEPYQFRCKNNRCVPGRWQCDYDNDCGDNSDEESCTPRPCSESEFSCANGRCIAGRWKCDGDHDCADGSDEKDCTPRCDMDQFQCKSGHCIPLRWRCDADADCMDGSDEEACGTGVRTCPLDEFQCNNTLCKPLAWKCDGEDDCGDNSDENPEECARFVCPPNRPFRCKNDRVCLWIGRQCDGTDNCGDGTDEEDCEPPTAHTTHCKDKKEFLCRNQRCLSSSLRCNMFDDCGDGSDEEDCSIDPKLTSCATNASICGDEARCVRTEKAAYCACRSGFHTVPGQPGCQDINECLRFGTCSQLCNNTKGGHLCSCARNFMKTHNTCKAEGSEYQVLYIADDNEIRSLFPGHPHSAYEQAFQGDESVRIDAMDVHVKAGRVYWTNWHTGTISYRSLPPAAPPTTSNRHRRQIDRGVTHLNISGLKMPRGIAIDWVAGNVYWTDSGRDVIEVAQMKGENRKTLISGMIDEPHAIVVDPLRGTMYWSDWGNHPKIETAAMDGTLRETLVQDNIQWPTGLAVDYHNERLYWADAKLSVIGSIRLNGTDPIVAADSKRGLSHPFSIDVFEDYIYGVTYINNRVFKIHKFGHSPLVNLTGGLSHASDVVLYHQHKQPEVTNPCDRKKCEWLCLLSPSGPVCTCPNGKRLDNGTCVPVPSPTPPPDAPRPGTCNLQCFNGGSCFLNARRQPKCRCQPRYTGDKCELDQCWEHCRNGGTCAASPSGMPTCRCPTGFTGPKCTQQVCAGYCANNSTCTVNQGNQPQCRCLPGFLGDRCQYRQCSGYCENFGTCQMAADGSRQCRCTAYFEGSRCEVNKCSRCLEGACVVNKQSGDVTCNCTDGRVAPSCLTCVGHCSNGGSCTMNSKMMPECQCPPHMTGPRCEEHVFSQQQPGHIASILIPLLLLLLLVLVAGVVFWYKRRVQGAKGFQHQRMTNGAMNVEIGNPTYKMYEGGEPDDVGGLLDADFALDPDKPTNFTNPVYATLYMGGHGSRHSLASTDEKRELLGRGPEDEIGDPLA
UniProt P30533, residues 35-357: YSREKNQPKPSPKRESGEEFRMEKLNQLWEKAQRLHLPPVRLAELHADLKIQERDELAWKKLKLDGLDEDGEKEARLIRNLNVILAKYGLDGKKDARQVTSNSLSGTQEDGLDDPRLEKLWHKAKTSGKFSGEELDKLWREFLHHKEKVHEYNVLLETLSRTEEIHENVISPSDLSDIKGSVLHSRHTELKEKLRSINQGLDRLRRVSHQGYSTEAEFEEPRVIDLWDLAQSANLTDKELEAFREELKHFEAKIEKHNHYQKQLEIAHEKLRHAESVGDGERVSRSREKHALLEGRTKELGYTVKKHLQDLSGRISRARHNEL

## receptor-associated protein (RAP) (from UniProt P30533 35-357)
  binding: binds
